Measured values taken from patent publication USRE32534E, “Peptides, process for preparing the same and psychodepressant compositions containing the same” (Amano Pharmaceutical Co., Ltd., priority 1982, dated 1987).
At least one peptide structure holds a part that was inferred or is arguable (an end, a ring closure or a residue). Where a SMILES comes first, the peptide text is derived from it.

Tested on: male Wister rats
Experiment: Effect on the fixed ratio responding in rats (FR20)
Type: in vivo
Conditions: s.c., 15 min before a 20 min session, dose giving count 50 with control as 100
Protocol: Effect on the fixed ratio responding in rats
The test was conducted according to the method described in Ahlenius S. and Engel J., Eur. J. Pharm., Vol. 15, 187-192 (1971).
Male Wister rats (weighing 240 to 320 g) were placed into Skinner box (product of Bil-Medika Co., Ltd., Japan, adapted to give a feed when a lever within the box is pressed) and made to learn how to take the food. In this test, one feed was given to the rats when the lever was pressed 20 times, i.e., fixed ratio (FR) 20. The rats showing stable FR20 response were divided into groups each including four rats.
Physiological saline (containing 1 mM of sodium hydrogencarbonate) containing a specified amount of a test compound was subcutaneously given to the rats of one group in a volume of 0.1 ml/100 g. (Physiological saline containing the above-mentioned amount of sodium hydrogencarbonate only was given to the control group). Fifteen minutes after the administration, the test animals were placed in the Skinner box, and the number of times the animals took the feed for 20 minutes was counted. The dose at which the count gained by the group of animals was 50, namely, ED50 value, was determined, with the count gained by the control group calculated as 100. The same procedure as above was repeated with use of the other test compounds.

CSCC[C@H](NC(=O)[C@H](Cc1ccc(OS(=O)(=O)O)cc1)NC(=O)CCC(=O)O)C(=O)NCC(=O)N[C@@H](Cc1c[nH]c2ccccc12)C(=O)N[C@@H](CCSC)C(=O)N[C@@H](CC(=O)O)C(=O)N(C)[C@@H](Cc1ccccc1)C(N)=O [Peptide C, Suc-- Tyr(SO3 H)--Met--Gly--Trp--Met--Asp--MePhe--NH2] (HELM PEPTIDE1{[O=C(O)CCC(=O)[*:2]].[O=C([C@H](Cc1ccc(OS(=O)(=O)O)cc1)N[*:1])[*:2]].M.G.W.M.D.[meF].[am]}$$$$V2.0)
ED50, inhibition of FR20 responding: 2.4 µg/kg
